# According to the supplement of paper PMC8728848:
# Some of the results follow.
# B1: PX9961K-bvu-480-28-480 (Bacteroides vulgatus) (protein)
# chain: NKIPTTMAFRTVTDVDNAVNGLYDLMSGSGYYGAAMFAYGDMKGDDMQSSEESGVCNTCYMFNHRPNSLNAGSLWGRPFYILREAWNILNAIAEGKIESGDEKKLNALKGETMAVIALCQFDLTRCFGYPYTKDKGASLGAPLIDHLVGTYENPPRSTVAQAYDFIIETLEEAVTLMSEEKNNGRMNKYAARALLARIYLYHDDNRKAFDLADQLIKDADTSGSYALYPHEKYVAAWSVEAKFGSESFFEIANSVDDTPGRDSWGYLLNWYGYQKGFVTQKYAEQMLADPGDVRGHLLEENKYAGKTVWWLYKLRGTDLKTAPLECNNVVLRLSEVYLIAAEAGCKLGGDAAVQGLGYLNEIVKRGNPDNEVTMADYTLDRVLDERSKELVGEGHRFFDLLRNGKTIVRKGGYHLPSVDEEVDWDFYKCVLPIPEDQFIFSPEMEQNPGYPKN
# What was measured:
# Assay in all cases: glycan array binding signal (z-score within array); higher = stronger binding
# Conditions in all cases: glycan notation: IUPAC condensed, linker removed
# [1] = biological target: Neu5Ac(a2-3)Gal(b1-3)GalNAc
# How it was run: (§1)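 Columns mapping to the same glycan were averaged after glycan names were converted to IUPAC-condensed notation. The data come from 3228 arrays in the Consortium for Functional Glycomics database, limited to those with an available protein sequence. Binding is reported as a within-array Z-score averaged across arrays of one protein sequence and across linkers.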
# [2] = biological target: Neu5Ac(a2-3)Gal(b1-3)GalNAc(b1-3)Gal(a1-4)Gal(b1-4)Glc
# How it was run: as §1
# [3] = biological target: Neu5Ac(a2-3)Gal(b1-3)GalNAc(b1-4)[Neu5Ac(a2-3)]Gal(b1-4)Glc
# How it was run: as §1
# [4] = biological target: Neu5Ac(a2-3)Gal(b1-3)GalNAc(b1-4)[Neu5Ac(a2-8)Neu5Ac(a2-3)]Gal(b1-4)Glc
# How it was run: as §1
# [5] = biological target: Neu5Ac(a2-3)Gal(b1-3)GalNAc6S
# How it was run: as §1
# [6] = biological target: Neu5Ac(a2-3)Gal(b1-3)GlcNAc
# How it was run: as §1
# [7] = biological target: Neu5Ac(a2-3)Gal(b1-3)GlcNAc(b1-2)Man
# How it was run: as §1
# [8] = biological target: Neu5Ac(a2-3)Gal(b1-3)GlcNAc(b1-2)Man(a1-3)[GlcNAc(b1-4)][Neu5Ac(a2-3)Gal(b1-3)GlcNAc(b1-2)Man(a1-6)]Man(b1-4)GlcNAc(b1-4)GlcNAc
# How it was run: as §1
# [9] = biological target: Neu5Ac(a2-3)Gal(b1-3)GlcNAc(b1-2)Man(a1-3)[Neu5Ac(a2-3)Gal(b1-3)GlcNAc(b1-2)Man(a1-6)]Man(b1-4)GlcNAc(b1-4)GlcNAc
# How it was run: as §1
# [10] = biological target: Neu5Ac(a2-3)Gal(b1-3)GlcNAc(b1-3)Gal(b1-3)GlcNAc
# How it was run: as §1
# [11] = biological target: Neu5Ac(a2-3)Gal(b1-3)GlcNAc(b1-3)Gal(b1-4)GlcNAc
# How it was run: as §1
# [12] = biological target: Neu5Ac(a2-3)Gal(b1-3)GlcNAc(b1-3)GalNAc
# How it was run: as §1
# [13] = biological target: Neu5Ac(a2-3)Gal(b1-3)GlcNAc(b1-4)Gal(b1-4)Glc
# How it was run: as §1
# [14] = biological target: Neu5Ac(a2-3)Gal(b1-3)GlcNAc(b1-6)GalNAc
# How it was run: as §1
# [15] = biological target: Neu5Ac(a2-3)Gal(b1-3)GlcNAc6S
# How it was run: as §1
# [16] = biological target: Neu5Ac(a2-3)Gal(b1-3)[Fuc(a1-4)]GlcNAc
# How it was run: as §1
# [17] = biological target: Neu5Ac(a2-3)Gal(b1-3)[Fuc(a1-4)]GlcNAc(b1-3)Gal(b1-3)[Fuc(a1-4)]GlcNAc
# How it was run: as §1
# [18] = biological target: Neu5Ac(a2-3)Gal(b1-3)[Fuc(a1-4)]GlcNAc(b1-3)Gal(b1-4)[Fuc(a1-3)]GlcNAc
# How it was run: as §1
# [19] = biological target: Neu5Ac(a2-3)Gal(b1-3)[GlcNAc(b1-6)]GalNAc
# How it was run: as §1
# [20] = biological target: Neu5Ac(a2-3)Gal(b1-3)[Neu5Ac(a2-6)]GalNAc
# How it was run: as §1
# [21] = biological target: Neu5Ac(a2-3)Gal(b1-3)[Neu5Ac(a2-6)]GlcNAc(b1-3)[Fuc(a1-3)[Gal(b1-4)]GlcNAc(b1-6)]Gal(b1-4)Glc
# How it was run: as §1
# [22] = biological target: Neu5Ac(a2-3)Gal(b1-3)]Neu5Ac(a2-3)Gal(b1-4)]GlcNAc
# How it was run: as §1
# [23] = biological target: Neu5Ac(a2-3)Gal(b1-4)Glc
# How it was run: as §1
# [24] = biological target: Neu5Ac(a2-3)Gal(b1-4)GlcNAc
# How it was run: as §1
# [25] = biological target: Neu5Ac(a2-3)Gal(b1-4)GlcNAc(b1-2)Man
# How it was run: as §1
# [26] = biological target: Neu5Ac(a2-3)Gal(b1-4)GlcNAc(b1-2)Man(a1-3)[GlcNAc(b1-4)][Neu5Ac(a2-3)Gal(b1-4)GlcNAc(b1-2)Man(a1-6)]Man(b1-4)GlcNAc(b1-4)GlcNAc
# How it was run: as §1
# [27] = biological target: Neu5Ac(a2-3)Gal(b1-4)GlcNAc(b1-2)Man(a1-3)[Neu5Ac(a2-3)Gal(b1-4)GlcNAc(b1-2)Man(a1-6)]Man(b1-4)GlcNAc(b1-4)GlcNAc
# How it was run: as §1
# [28] = biological target: Neu5Ac(a2-3)Gal(b1-4)GlcNAc(b1-2)Man(a1-3)[Neu5Ac(a2-3)Gal(b1-4)GlcNAc(b1-2)Man(a1-6)]Man(b1-4)GlcNAc(b1-4)[Fuc(a1-6)]GlcNAc
# How it was run: as §1
# [29] = biological target: Neu5Ac(a2-3)Gal(b1-4)GlcNAc(b1-2)Man(a1-3)[Neu5Ac(a2-6)Gal(b1-4)GlcNAc(b1-2)Man(a1-6)]Man(b1-4)GlcNAc(b1-4)GlcNAc
# How it was run: as §1
# [30] = biological target: Neu5Ac(a2-3)Gal(b1-4)GlcNAc(b1-2)[Neu5Ac(a2-3)Gal(b1-4)GlcNAc(b1-4)]Man(a1-3)[GlcNAc(b1-4)][Neu5Ac(a2-3)Gal(b1-4)GlcNAc(b1-2)[Neu5Ac(a2-3)Gal(b1-4)GlcNAc(b1-6)]Man(a1-6)]Man(b1-4)GlcNAc(b1-4)GlcNAc
# How it was run: as §1
# [31] = biological target: Neu5Ac(a2-3)Gal(b1-4)GlcNAc(b1-2)[Neu5Ac(a2-3)Gal(b1-4)GlcNAc(b1-4)]Man(a1-3)[GlcNAc(b1-4)][Neu5Ac(a2-3)Gal(b1-4)GlcNAc(b1-4)Man(a1-6)]Man(b1-4)GlcNAc(b1-4)GlcNAc
# How it was run: as §1
# [32] = biological target: Neu5Ac(a2-3)Gal(b1-4)GlcNAc(b1-2)[Neu5Ac(a2-3)Gal(b1-4)GlcNAc(b1-6)]Man(a1-6)[Neu5Ac(a2-3)Gal(b1-4)GlcNAc(b1-2)Man(a1-3)]Man(b1-4)GlcNAc(b1-4)GlcNAc
# How it was run: as §1
# [33] = biological target: Neu5Ac(a2-3)Gal(b1-4)GlcNAc(b1-2)[Neu5Ac(a2-3)Gal(b1-4)GlcNAc(b1-6)]Man(a1-6)[Neu5Ac(a2-3)Gal(b1-4)GlcNAc(b1-2)Man(a1-3)][GlcNAc(b1-4)]Man(b1-4)GlcNAc(b1-4)GlcNAc
# How it was run: as §1
# [34] = biological target: Neu5Ac(a2-3)Gal(b1-4)GlcNAc(b1-3)Gal
# How it was run: as §1
# [35] = biological target: Neu5Ac(a2-3)Gal(b1-4)GlcNAc(b1-3)Gal(b1-3)GlcNAc
# How it was run: as §1
# [36] = biological target: Neu5Ac(a2-3)Gal(b1-4)GlcNAc(b1-3)Gal(b1-4)GlcNAc
# How it was run: as §1
# [37] = biological target: Neu5Ac(a2-3)Gal(b1-4)GlcNAc(b1-3)Gal(b1-4)GlcNAc(b1-2)Man(a1-3)[Neu5Ac(a2-3)Gal(b1-4)GlcNAc(b1-3)Gal(b1-4)GlcNAc(b1-2)Man(a1-6)]Man(b1-4)GlcNAc(b1-4)GlcNAc
# How it was run: as §1
binder,measurement,setting,value
B1,glycan array binding signal (z-score),[1],-0.276
same,glycan array binding signal (z-score),[2],0.822
same,glycan array binding signal (z-score),[3],-0.049
same,glycan array binding signal (z-score),[4],-0.425
same,glycan array binding signal (z-score),[5],-0.533
same,glycan array binding signal (z-score),[6],0.2
same,glycan array binding signal (z-score),[7],0.268
same,glycan array binding signal (z-score),[8],0.06
same,glycan array binding signal (z-score),[9],-0.322
same,glycan array binding signal (z-score),[10],-0.752
same,glycan array binding signal (z-score),[11],0.011
same,glycan array binding signal (z-score),[12],-0.742
same,glycan array binding signal (z-score),[13],-0.342
same,glycan array binding signal (z-score),[14],-0.237
same,glycan array binding signal (z-score),[15],0.976
same,glycan array binding signal (z-score),[16],0.901
same,glycan array binding signal (z-score),[17],0.481
same,glycan array binding signal (z-score),[18],0.153
same,glycan array binding signal (z-score),[19],-1.23
same,glycan array binding signal (z-score),[20],0.069
same,glycan array binding signal (z-score),[21],0.381
same,glycan array binding signal (z-score),[22],-0.858
same,glycan array binding signal (z-score),[23],0.325
same,glycan array binding signal (z-score),[24],-0.351
same,glycan array binding signal (z-score),[25],-0.302
same,glycan array binding signal (z-score),[26],-0.307
same,glycan array binding signal (z-score),[27],0.248
same,glycan array binding signal (z-score),[28],-0.197
same,glycan array binding signal (z-score),[29],-1.02
same,glycan array binding signal (z-score),[30],-0.976
same,glycan array binding signal (z-score),[31],-0.761
same,glycan array binding signal (z-score),[32],-0.187
same,glycan array binding signal (z-score),[33],1.59
same,glycan array binding signal (z-score),[34],0.436
same,glycan array binding signal (z-score),[35],0.56
same,glycan array binding signal (z-score),[36],-0.369
same,glycan array binding signal (z-score),[37],-0.016

# Two entries from above, reformatted.
binder | measurement | setting | value
B1 | glycan array binding signal (z-score) | [20] | 0.069
same | glycan array binding signal (z-score) | [26] | -0.307
